PubChem BioAssay AID652243, Drosophila RNAi Screening Center | 2013
The deposit covers about 24,000 reagents; below is an unselected part of those with a known target gene and a result. Of all reagents, 246 (1%) got an active call. 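Plates not normalised; calls are printed but the firefly/Renilla ratio behind them is not deposited; fold cut for lowering reported inconsistently.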 Raw values vary from plate to plate and are shown uncorrected. Reagents against one gene are numbered here. The record does not give: the amount of reagent.

- Assay: 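Knock-downs that decrease or increase androgen receptor reporter signal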 (primary screen)
- Cell system: Drosophila S2R+ cells
- Reagents: long dsRNA against Drosophila genes
- Time to read-out: 72 h (48 h, then 24 h hormone)
- Treatment: synthetic androgen R1881 at 10 nM for 24 h
- Read-out: 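Per-well raw luminescence of the androgen-driven firefly reporter and of the Renilla control, two replicates each, without normalisation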
- Scale: firefly reporter light: higher = more light from androgen-responsive reporter; Renilla control light: higher = more constitutive control signal (cell number, transfection)
- Rule for the call: 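Across duplicate plates, a knock-down whose log firefly/Renilla ratio shifted a set fold down or up from the GFP/LacZ control mean was a hit; the downward cut appears as both 1.5 and 3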
- Meaning of the calls: active = hit: reporter lowered or raised; inactive = no hit

The opening 3 entries, ahead of the listing:
target gene	reagent	firefly reporter light, replicate 1	firefly reporter light, replicate 2	Renilla control light, replicate 1	Renilla control light, replicate 2	outcome
CG7406	1	1.06e5	40368	4.14e5	1.62e5	inactive
CG7406	2	3.51e5	3.43e5	1.41e6	1.67e6	inactive
CG15021	1	1.31e5	1.64e5	5.58e5	7.96e5	inactive

The listing, from the start:
target gene	reagent	firefly reporter light, replicate 1	firefly reporter light, replicate 2	Renilla control light, replicate 1	Renilla control light, replicate 2	outcome
CG7406	1	1.06e5	40368	4.14e5	1.62e5	inactive
CG7406	2	3.51e5	3.43e5	1.41e6	1.67e6	inactive
CG15021	1	1.31e5	1.64e5	5.58e5	7.96e5	inactive
CG15021	2	5.81e5	5.44e5	6.43e5	6.68e5	inactive
Tmem214 (Transmembrane protein 214)	1	2.06e5	2.72e5	1.48e6	1.58e6	inactive
Tmem214 (Transmembrane protein 214)	2	2.24e5	1.47e5	1.78e6	1.60e6	inactive
Tmem214 (Transmembrane protein 214)	3	3.70e5	4.08e5	1.01e6	9.83e5	inactive
Exo84 (Exocyst 84)	1	1.69e5	1.41e5	1.65e6	1.73e6	inactive
Mayo	1	1.60e5	1.90e5	2.14e6	3.45e6	inactive
Lgr1 (Leucine-rich repeat-containing G protein-coupled receptor 1)	1	1.14e5	1.12e5	1.40e6	1.19e6	inactive
CG5928	1	3.96e5	3.79e5	2.35e6	2.48e6	inactive
CG5928	2	3.21e5	3.41e5	7.58e5	6.75e5	inactive
Rat1 (Rat1 5'-3' exoribonuclease)	1	7.77e5	5.29e5	2.28e6	1.50e6	inactive
Uros1 (Uroporphyrinogen III synthase 1)	1	1.17e5	1.05e5	7.07e5	7.22e5	inactive
Uros1 (Uroporphyrinogen III synthase 1)	2	7.14e5	6.73e5	8.54e5	8.54e5	inactive
unc-4	1	2.41e5	3.66e5	2.44e6	2.71e6	inactive
unc-4	2	5.31e5	5.98e5	2.50e6	2.15e6	inactive
unc-4	3	7.20e5	6.75e5	1.43e6	6.82e5	inactive
CG31495	1	1.14e5	1.42e5	2.02e6	2.13e6	inactive
CG31495	2	5.07e5	7.06e5	9.99e5	1.13e6	inactive
Hsp70Bc (Heat shock protein 70 Bc)	1	1.60e5	1.07e5	1.48e6	1.15e6	inactive
Ir56b (Ionotropic receptor 56b)	1	72291	91720	9.47e5	1.06e6	inactive
Ir56b (Ionotropic receptor 56b)	2	6.23e5	4.57e5	1.33e6	1.46e6	inactive
Ir7b (Ionotropic receptor 7b)	1	2.20e5	2.85e5	2.58e6	2.47e6	inactive
CG17776	1	4.03e5	4.10e5	3.70e6	2.73e6	inactive
CG17776	2	5.36e5	4.46e5	8.84e5	1.25e6	inactive
Nak (Numb-associated kinase)	1	1.29e6	7.11e5	2.07e6	1.12e6	inactive
Nak (Numb-associated kinase)	2	2.12e5	2.67e5	3.16e5	7.53e5	inactive
Nak (Numb-associated kinase)	3					inactive
CG15767	1	3.05e5	4.56e5	1.49e6	1.38e6	inactive
CG15767	2	8.40e5	6.04e5	1.44e6	1.13e6	inactive
scrt (scratch)	1	93254	1.68e5	6.72e5	8.06e5	active
scrt (scratch)	2	4.35e5	3.85e5	1.01e6	6.78e5	inactive
meru	1	2.27e5	1.65e5	2.39e5	1.61e5	inactive
meru	2	2.54e5	2.28e5	2.45e6	1.84e6	inactive
CG31668	1	7.34e5	5.02e5	1.79e6	1.71e6	inactive
Obp51a (Odorant-binding protein 51a)	1	4.67e5	8.74e5	9.27e5	1.33e6	inactive
CG13564	1	3.55e5	3.71e5	2.39e6	2.73e6	inactive
Kaz-m1 (Kazal-type protease inhibitor m1)	1	1.04e5	1.56e5	1.94e6	2.49e6	inactive
apolpp (apolipophorin)	1	63013	55632	5.62e5	3.42e5	inactive
